{"sequences": {"note": "By UniProt entry, the sequences of proteins in these tests, tags left out. Residues count along the entry.", "UniProt A0A2S0X9G3, 18-144 limits assumed": "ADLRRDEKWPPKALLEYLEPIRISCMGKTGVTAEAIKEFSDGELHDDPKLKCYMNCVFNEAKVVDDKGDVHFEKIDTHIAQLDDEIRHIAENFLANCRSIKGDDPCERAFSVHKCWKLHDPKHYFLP"}, "source": "paper PMC8539145", "about": "“Function and Characterization Analysis of BodoOBP8 from Bradysia odoriphaga (Diptera: Sciaridae) in the Recognition of Plant Volatiles and Sex Pheromones” (Insects, 2021)", "biological_target": "BodoOBP8 (Bradysia odoriphaga, UniProt A0A2S0X9G3)", "assay": "Fluorescence competitive binding assay (1-NPN probe) with recombinant BodoOBP8", "details": "calculated from IC50 of 1-NPN displacement, listed as methyl allyl disulfide", "note": "Some entries of the source have several records that differ or are many. They are shown here; other results are not. The source may hold further records. The records of an entry differ, and nothing given here explains why; they may come from other doses, times, organisms or constructs than stated."}
{"compound": "C=CCSSC", "note": "[Methyl allyl disulfide]", "values": [{"measurement": "Ki", "value": "4.04 µM and < 10 µM"}]}
